Reference: PMC6283580
Results are given in words; binding and its absence hold for the method and conditions named. Some binding calls cover weakened binding; strength is not graded here.

Protein sequences, listed by entry. Tags and fused reporters are not part of them. Residues count along the entry.
UniProt P36544, residues 23-502: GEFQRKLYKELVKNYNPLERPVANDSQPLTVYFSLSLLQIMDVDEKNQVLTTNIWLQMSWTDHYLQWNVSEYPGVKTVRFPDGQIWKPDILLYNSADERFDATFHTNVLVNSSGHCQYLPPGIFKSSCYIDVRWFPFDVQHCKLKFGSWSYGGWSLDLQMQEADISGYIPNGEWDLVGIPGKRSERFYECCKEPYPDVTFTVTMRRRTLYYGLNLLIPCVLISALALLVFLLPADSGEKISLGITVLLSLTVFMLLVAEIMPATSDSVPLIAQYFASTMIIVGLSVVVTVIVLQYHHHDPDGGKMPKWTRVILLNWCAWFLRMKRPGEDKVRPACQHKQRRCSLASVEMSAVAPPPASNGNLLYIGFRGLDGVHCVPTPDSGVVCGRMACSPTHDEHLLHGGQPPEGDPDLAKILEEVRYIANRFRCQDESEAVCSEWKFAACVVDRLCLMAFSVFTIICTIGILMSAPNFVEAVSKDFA
UniProt P60615, residues 22-95: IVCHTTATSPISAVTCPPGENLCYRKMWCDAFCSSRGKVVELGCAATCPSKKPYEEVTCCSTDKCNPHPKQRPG

Biological target: human α7 acetylcholine receptor (α7 AChR) (human) (UniProt P36544)
Assay: radioimmunoprecipitation assay (RIA); only the binder purified

For “iodine 125-labelled α-bungarotoxin (from UniProt P60615 22-95) (ligand)”, the binding was “binds”.
